The target in test [1] is mouse frataxin (mouse (endogenous in primary cortical neurons)). Briefly: proximity ligation; in situ Duolink PLA in fixed mouse primary cortical neurons; anti-FXN with anti-MT-ND1, anti-SDHB or anti-UQCRFS1.
In test [2] the target is human frataxin (human (endogenous in hiPSC-derived CMs and NPCs, SH-SY5Y, LCLs)). As to the kind of experiment: proximity ligation; in situ Duolink PLA in fixed retinoic acid-differentiated SH-SY5Y neuroblastoma cells; anti-FXN with anti-MT-ND1, anti-SDHB or anti-UQCRFS1.
The target is the same in test [3]. As to the kind of experiment: proximity ligation; in situ Duolink PLA in fixed, permeabilised hiPSC-derived neural progenitor cells of a healthy control (fewer dots in FRDA patient's NPCs); anti-FXN with anti-MT-ND1, anti-SDHB or anti-UQCRFS1; signal at distances <40 nm.
Test [4] shares this target. As to the kind of experiment: proximity ligation; in situ Duolink PLA in fixed, permeabilised hiPSC-derived cardiomyocytes of a healthy control (fewer dots in FRDA patient's CMs); anti-FXN with anti-MT-ND1, anti-SDHB or anti-UQCRFS1; signal at distances <40 nm.

This note sets out measurements from article PMC10703789.

Results are given in words; binding and its absence hold for the method and conditions named. Binding seen in cells or lysates may run through a third protein. Binding calls can cover weak binding; strength is not graded here.

B1: mouse SDHB (CII) (protein, UniProt Q9CQA3 31-282)
chain: AQTAAAAAPRIKKFAIYRWDPDKTGDKPRMQTYEVDLNKCGPMVLDALIKIKNEVDSTLTFRRSCREGICGSCAMNINGGNTLACTRRIDTDLSKVSKIYPLPHMYVIKDLVPDLSNFYAQYKSIEPYLKKKDESQEGKQQYLQSIEDREKLDGLYECILCACCSTSCPSYWWNGDKYLGPAVLMQAYRWMIDSRDDFTEERLAKLQDPFSVYRCHTIMNCTQTCPKGLNPGKAIAEIKKMMATYKEKRALA
B1: the binding entry in test [1] was “binds”.

B2: SDHB (complex II) (protein, UniProt P21912 29-280)
chain: AQTAAATAPRIKKFAIYRWDPDKAGDKPHMQTYEVDLNKCGPMVLDALIKIKNEVDSTLTFRRSCREGICGSCAMNINGGNTLACTRRIDTNLNKVSKIYPLPHMYVIKDLVPDLSNFYAQYKSIEPYLKKKDESQEGKQQYLQSIEEREKLDGLYECILCACCSTSCPSYWWNGDKYLGPAVLMQAYRWMIDSRDDFTEERLAKLQDPFSLYRCHTIMNCTRTCPKGLNPGKAIAEIKKMMATYKEKKASV
For the molecule B2, the binding entry in test [2], in test [3] and in test [4] was “binds” throughout.
